# PubChem BioAssay AID488837 (National Center for Advancing Translational Sciences (NCATS), 2010)
# Protein sequences, listed by entry. Tags and fused reporters are not part of them. Lines headed by an entry give the natural chain unless they say otherwise; changes in a name come on top.
# UniProt O00167: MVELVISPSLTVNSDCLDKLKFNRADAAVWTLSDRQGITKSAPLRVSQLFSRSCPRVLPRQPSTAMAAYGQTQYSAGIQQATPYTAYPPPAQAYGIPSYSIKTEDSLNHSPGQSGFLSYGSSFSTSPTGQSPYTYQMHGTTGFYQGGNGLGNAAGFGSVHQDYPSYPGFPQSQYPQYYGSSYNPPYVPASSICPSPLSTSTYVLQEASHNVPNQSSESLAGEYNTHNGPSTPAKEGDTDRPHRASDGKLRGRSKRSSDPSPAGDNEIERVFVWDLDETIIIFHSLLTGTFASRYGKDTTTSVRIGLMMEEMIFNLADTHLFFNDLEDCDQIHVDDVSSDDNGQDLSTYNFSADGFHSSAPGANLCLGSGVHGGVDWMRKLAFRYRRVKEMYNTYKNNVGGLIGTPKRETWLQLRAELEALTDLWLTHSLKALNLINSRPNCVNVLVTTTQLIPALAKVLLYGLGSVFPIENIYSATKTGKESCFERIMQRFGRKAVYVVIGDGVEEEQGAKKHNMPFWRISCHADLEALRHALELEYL
# Among all 330,000 compounds or so, about 20 (0.006%) were called active. The inconclusive results got no clear call from the source; some entries with a clear call stand among them for comparison. Calls come from the whole dose curve; as a rule, active = well fitted inhibition curve with a large enough effect; inconclusive = small, poorly fitted or top-dose-only effect, or effect the other way; inactive = flat fitted curve, though single readings scatter. A potency beside an inconclusive call is a rough fit, not a confirmed value.
# Target: Protein phosphatase EYA2 (Homo sapiens) (UniProt O00167)
# Assay: qHTS Assay for Inhibitors of the Phosphatase Activity of Eya2
# Details: recombinant Eya2, OMFP fluorescence dephosphorylation (OMFP is methylfluorescein phosphate); activity, negative = inhibition: at 76.9 µM (top of the series) unless noted
# Source text: The Eya family of proteins are essential co-activators of the Six1 transcription factor. Six1 is a developmental gene that is abnormally re-expressed in a large percentage of breast cancers. This over-expression plays a causal role in the initiation and metastatic development of breast cancers. The Eya family of proteins was also found to contain a unique HAD phosphatase domain with protein tyrosine phosphatase activity which can potentially play a role in Six1-mediated breast tumorigenesis. […] We have developed and optimized a 1536 well fluorescence-based HTS assay targeting the phosphatase activity of Eya2. Inhibitors found against Eya2 could serve as potential therapeutic tools to inhibit Six1-mediated breast tumorigenesis and to increase the efficiency of radiation and certain chemo therapy. These inhibitors could also be used as chemical probes to study the function of Eya2's phosphatase activity and its role in Six1-mediated breast tumorigenesis.
# The Eya2 enzyme was kindly provided by the laboratory of Dr. Rui Zhao. The 3-O-methyl-fluorescein phosphate (OMFP) substrate and all buffer reagents were purchased from Sigma Aldrich. qHTS Assay Setup: 1. Buffer- 50 mM HEPES pH 7.5, 50 mM NaCl, 5 uM MgCl2, 0.05% BSA, 1 mM DTT. 2. OMFP Stock- 10 mM solution prepared in 100% DMSO and stored in single use aliquots at -20C. Assay Procedure- 1. Dispense 1.5 ul per well of Eya2 at 0.2 uM in black medium binding 1536 well Greiner plate 2. Transfer 23 nl of compound and control compound (EGTA) to plate 3. Incubate at ambient for 10 minutes 4. Dispense 1.5 ul per well of OMFP at 50 uM 5. Incubate at ambient for 10 minutes 6. Read on ViewLux using Excitation = 485 nm, Emission = 525 nm
# % is set by controls: 0 for no effect and ±100 for the full control effect; potency is the fitted concentration of half-maximal effect.
SMILES,Potency,"activity, negative = inhibition"
C/C(=N\Nc1ncc(Cl)cc1Cl)c1ccccn1,inactive,
O=C(COC(=O)Cn1nnc2ccccc21)Nc1ccccc1Br,inactive,
CNC(=O)N(O)C1N(/N=C/c2cccnc2)C(=S)SC1(C)C (centres undefined),"inconclusive: 56.2 µM [inhibitor, single point]",
O=C(O)c1ccc(Cn2nnc3sc4c(c3c2=O)CCCC4)cc1,inactive,
COc1ccc(C(=O)C2CCCN(C(=O)c3cccs3)C2)cc1F (centres undefined),"inconclusive: 89.1 µM [inhibitor, single point]",
CCOC(=O)C1=C(c2ccccc2)Nc2c(c(=O)n(C)c(=O)n2C)C1c1ccc(O)c(OC)c1 (centres undefined),"inconclusive: 15.8 µM [inhibitor, single point]",
CCOc1cccc(SCc2noc(C(=O)NCC3CCCO3)c2C(=O)O)c1 (centres undefined),"inconclusive: 158 µM [activator, partial curve]",
COc1ccc(Cl)cc1S(=O)(=O)NCc1nc2nc(C)cc(C)n2n1,inactive,
COc1cccc(C(=O)C2=NN(C(C)=O)CC2c2ccco2)c1 (centres undefined),"inconclusive: 251 µM [inhibitor, partial curve]",
CCOC(=O)CCNC(=O)N1CCC(CCC(=O)NCc2ccc(F)cc2)CC1,"inconclusive: 17.8 µM [inhibitor, single point]",
Cc1cc(C)nc(N/N=C/c2ccccc2Cl)n1,"inconclusive: 100 µM [inhibitor, single point]",
O=C(NC1CCCCCC1)C(=S)NCCc1ccccc1,"inconclusive: 89.1 µM [inhibitor, single point]",
Cc1ccc(C(=O)Nc2cccc3ccccc23)cc1,"inconclusive: 100 µM [inhibitor, single point]",
Nc1nc(SC23CC4CC(CC(C4)C2)C3)ns1,"inconclusive: 11200 µM [inhibitor, partial curve, poor fit]",
FC(F)(F)c1cccc(CN2CCSCC2)c1,"inconclusive: 22.4 µM [inhibitor, single point]",
O=C(CSCc1c(Cl)cccc1Cl)Nc1ccc2c(c1)OCCO2,inactive,
Cc1cc(C)n(-c2ccc([N+](=O)[O-])cc2-c2nn[nH]n2)n1,inactive,
O=C(NCC1CCCO1)c1cc(-c2ccccc2)nc2ccccc12 (centres undefined),"inconclusive: 100 µM [inhibitor, single point]",
CC(C)(C)C(=O)Nc1ccc(C(=O)Nc2cc(NC(=O)c3ccc(NC(=O)C(C)(C)C)cc3)cc(C(=O)O)c2)cc1,"inconclusive: 28.2 µM [inhibitor, partial curve]",
CCOC(=O)C1=CC[C@H]2c3c(c4ccccc4n3C)C(=O)C1N2Cc1ccccc1,"inconclusive: 8.91 µM [inhibitor, single point]",
Cc1ccc(/C=C2/SC(=O)NC2=S)o1,inactive,
Cc1ccc2nc(N(CCN(C)C)C(=O)c3ccc4ccccc4c3)sc2c1,"inconclusive: 20 µM [inhibitor, single point]",
Cc1ccnc(NC(=O)CCC(=O)N(Cc2ccco2)C(C(=O)NC(C)C)c2ccc(F)cc2)c1 (centres undefined),"inconclusive: 3980 µM [inhibitor, partial curve, poor fit]",

# A draw from above in order of length of the SMILES, rising:
SMILES,Potency,"activity, negative = inhibition"
Cc1ccc(C(=O)Nc2cccc3ccccc23)cc1,"inconclusive: 100 µM [inhibitor, single point]",
COc1ccc(C(=O)C2CCCN(C(=O)c3cccs3)C2)cc1F (centres undefined),"inconclusive: 89.1 µM [inhibitor, single point]",
CCOc1cccc(SCc2noc(C(=O)NCC3CCCO3)c2C(=O)O)c1 (centres undefined),"inconclusive: 158 µM [activator, partial curve]",

# Additional results follow:

SMILES,Potency,"activity, negative = inhibition"
CC(C)c1ccc(C(O)c2nc3ccccc3n2C)cc1 (centres undefined),"inconclusive: 224 µM [inhibitor, partial curve]",
O=C(Cn1nc(-c2ccc(Cl)cc2)c2ccccc2c1=O)NN1CCOCC1,"inconclusive: 126 µM [inhibitor, single point]",
NC(=O)N/N=C/c1cc(F)cc(F)c1,"inconclusive: 89.1 µM [inhibitor, single point]",
CC(C)CC(NS(=O)(=O)c1ccc2[nH]c(=O)c(=O)[nH]c2c1)C(=O)O (centres undefined),"inconclusive: 100 µM [inhibitor, single point]",
FC(F)(F)c1cccc(N2CCN(CC3CC4C=CC3C4)CC2)c1 (centres undefined),"inconclusive: 25.1 µM [inhibitor, single point]",
COc1ccc(C2C=C(c3ccc(Br)s3)Nc3ncnn32)cc1OC (centres undefined),,inconclusive: 112% [activator]
Cc1cccc(N2CCN(C(=O)C(Cc3ccccc3)n3cccc3)CC2)c1C (centres undefined),"inconclusive: 17.8 µM [inhibitor, single point]",
OCCNc1nc2ccccc2[nH]1,,inconclusive: 34.9% [activator]
CC(C)NC(=O)N1CC(c2ccccc2)C(c2ccc(Cl)cc2)=N1 (centres undefined),"inconclusive: 100 µM [inhibitor, single point]",
O=C(Nc1ccc2c(c1)CCC2)c1cc2ccccc2o1,"inconclusive: 79.4 µM [inhibitor, partial curve]",
CCC(Oc1ccccc1)C(=O)Nc1ccc(S(=O)(=O)Nc2cnc3ccccc3n2)cc1 (centres undefined),"inconclusive: 50.1 µM [inhibitor, partial curve]",
Cc1ccccc1CCNC(=O)Cn1ccc2cc(S(=O)(=O)N3CCCC3)ccc21,"inconclusive: 89.1 µM [inhibitor, single point]",
O=C(c1cn(Cc2ccccc2)nc1-c1ccccc1)N1CCN(c2ccccn2)CC1,inactive,
CN(c1ccccc1)S(=O)(=O)c1ccc(Cl)c(C(=O)Nc2nc3ccccc3[nH]2)c1,inactive,
COC(=O)c1cnn(-c2ccc(C(=O)Nc3cccc(C(C)=O)c3)cc2)c1N,inactive,
Cc1ccc(/C=C/c2onc(C)c2S(=O)(=O)N2CCC(C(=O)NC(C)(C)C)CC2)cc1,"inconclusive: 28.2 µM [inhibitor, partial curve, poor fit]",
CCOc1ccccc1NC(=O)c1cccc2c1C(=O)N(C1CCCCC1)C2,inactive,
Cc1cccc(C)c1N(CC(=O)N1CCOCC1)S(C)(=O)=O,"inconclusive: 22.4 µM [inhibitor, single point]",
CCc1nn(CC(=O)NCCC(C)C)c(=O)c2cc3c(OC)cccc3n12,"inconclusive: 100 µM [inhibitor, single point]",
Cn1cc([N+](=O)[O-])c(C(=O)Nc2ccc(-c3nc4ccccc4o3)cc2)n1,"inconclusive: 100 µM [inhibitor, single point]",
COC(=O)c1scc(C)c1NC(=O)CSc1ccc(Cl)cc1,"inconclusive: 398 µM [inhibitor, partial curve, poor fit]",
C=CCNC(=S)NNC(=O)COc1ccc2cc(Br)ccc2c1,inactive,

SMILES,Potency,"activity, negative = inhibition"
O=C(CNC(=O)c1cccs1)N/N=C/c1c[nH]c2ccccc12,"inconclusive: 22.4 µM [inhibitor, partial curve, poor fit]",
CN(C)CCCNS(=O)(=O)c1ccc(Oc2ncc(C(F)(F)F)cc2Cl)cc1,inactive,
CCOC(=O)c1[nH]c2ccc(OCC)cc2c1NC(=O)CN1CCN(c2ccccn2)CC1,inactive,
CSc1ccc(/C=N/n2c(COc3ccccc3)n[nH]c2=S)cc1,"inconclusive: 1780 µM [inhibitor, single point]",
NCCCNc1nc(N)c([N+](=O)[O-])c(NC2CCCCC2)n1,"inconclusive: 89.1 µM [inhibitor, single point]",
CCOC(=O)c1c(NC(=O)c2ccoc2C)sc(C(=O)N(C)C)c1C,"inconclusive: 141 µM [inhibitor, partial curve, poor fit]",
O=C(CC1C(=O)NCCN1Cc1ccccc1C(F)(F)F)NC1CCCCCC1 (centres undefined),inactive,
N#CCCN(C(=O)COc1ccc(Br)cc1F)c1ccc(F)cc1,"inconclusive: 141 µM [inhibitor, partial curve, poor fit]",
C=CCOn1c(=O)c(-c2ccc(Cl)cc2)[n+]([O-])c2ccccc21,"inconclusive: 20 µM [inhibitor, single point]",
O=C(NC1CCNCC1)C1CCCCC1,"inconclusive: 22.4 µM [inhibitor, single point]",
O=C(COC(=O)CCc1nc2ccccc2s1)NCc1ccco1,"inconclusive: 398 µM [inhibitor, partial curve, poor fit]",
O=c1c(Cl)c(NCCO)ncn1-c1ccccc1,inactive,
CCN(CC)CCCNC(=S)N1CCN(c2nc(-c3ccc(F)cc3)cs2)CC1,inactive,
O=C(Nc1ccc(S(=O)(=O)Nc2cnc3ccccc3n2)cc1)c1ccc([N+](=O)[O-])cc1Cl,"inconclusive: 100 µM [inhibitor, single point]",
Cc1onc(C(=O)Nc2c(C)n(C)n(-c3ccccc3)c2=O)c1[N+](=O)[O-],inactive,
CO/N=C\C(=N\Nc1ccc(OC)cc1)C(=O)c1ccccc1,"inconclusive: 70.8 µM [inhibitor, single point]",
Cc1ccc(CNC(=O)C2CCCN2C(=O)NCc2ccccc2)cc1 (centres undefined),"inconclusive: 20 µM [inhibitor, single point]",
CCN(CC(=O)Nc1ccc2c(c1)OCCO2)C(=O)c1cc(S(=O)(=O)N2CCOCC2)ccc1F,"inconclusive: 15.8 µM [inhibitor, single point]",
CCSc1cc(C)nc2c(-c3ccccc3)cnn12,"inconclusive: 70.8 µM [inhibitor, single point]",
COc1cc2c(cc1OC)CN(C(=O)/C=C/c1cc(OC)c(OC)c(OC)c1)CC2,"inconclusive: 20 µM [inhibitor, single point]",
Cc1ccccc1-c1nn(-c2ccc(F)cc2F)cc1CNCCCN(C)C,inactive,
O=C1NN(c2ccc(F)cc2)C(=O)/C1=C\C=C\c1ccco1,inactive,
COc1ccc(NC(=O)Cn2ccc(C(F)(F)F)n2)cc1S(=O)(=O)N1CCOCC1,"inconclusive: 100 µM [inhibitor, partial curve, poor fit]",
